Data reported in article PMC7819943, “Rice protein-binding microarrays: a tool to detect cis-acting elements near promoter regions in rice”.
This is one part of the list.

The chains behind the UniProt entries cited, without tags or fusion partners.
UniProt Q0JBA9, entry or part of it: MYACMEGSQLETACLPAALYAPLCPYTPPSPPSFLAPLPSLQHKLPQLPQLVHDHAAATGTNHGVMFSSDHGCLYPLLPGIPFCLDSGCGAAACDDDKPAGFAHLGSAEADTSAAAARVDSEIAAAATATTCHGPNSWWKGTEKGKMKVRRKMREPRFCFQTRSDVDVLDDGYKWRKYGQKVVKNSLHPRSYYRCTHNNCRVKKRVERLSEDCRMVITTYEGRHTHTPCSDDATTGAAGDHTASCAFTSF

Each sequence was assayed against OsWRKY34 (Oryza sativa, UniProt Q0JBA9 1-250) (assay: protein-binding microarray (RPBM); PBS, 2% BSA, 51.3 ng/ul salmon testes DNA, 50 uM zinc acetate, 200 nM TF, 25 C, 1 h; high values mean tight binding). Settings: protein: recombinant; tags: N-terminal polyhistidine and DsRed monomer fusion (pET32a); label: CyDye5-dUTP incorporated in the synthesized complementary strand; 3' TTTTT single-stranded linker to array surface; dsDNA, one strand shown.
In short: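 Transcription factors were each fused at the N-terminus to a polyhistidine tag plus DsRed and expressed in E. coli BL21-CodonPlus before Ni–NTA purification. Binding to a double-stranded custom Agilent array was carried out with 200 nM protein at 25 °C for 1 h in PBS, 2% BSA, salmon testes DNA and 50 µM zinc acetate. The binding signal is per-feature fluorescence intensity, in arbitrary units, on an Axon 4000B scanner.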

Row | Sequence | binding signal
1 | TTGTTGTGTATGTTTCCAATCGGTTCGTTTGCAACGCATACGGAGTCACCTAGTGCAG | 8440 fluorescence intensity (a.u.)
2 | TGTCTATCTATCTTCTACTCCTATCTATTTATTCTATAACCGGAGTCACCTAGTGCAG | 10800 fluorescence intensity (a.u.)
3 | CTCTCTTATCCGATTCCTGTGTTTTTTCTGTGGTCTAATCCGGAGTCACCTAGTGCAG | 11400 fluorescence intensity (a.u.)
4 | AAGAAATCTTCCCTGTCCTACCTTTTCTTCTCACTGTATGCGGAGTCACCTAGTGCAG | 8860 fluorescence intensity (a.u.)
5 | CGCCGTCGCCGTCGCGCTCATCCACGTCACCATGGACGAACGGAGTCACCTAGTGCAG | 9130 fluorescence intensity (a.u.)
6 | TTGGCGTGATGGGAATTTTTTTCATATTTACATTTTTATTCGGAGTCACCTAGTGCAG | 8870 fluorescence intensity (a.u.)
7 | CATTGTAGTTTATTTTTCAGCCTCTACTTTTAGATCGTTACGGAGTCACCTAGTGCAG | 8740 fluorescence intensity (a.u.)
8 | TGGTCTTGTGGTGCCTTTTTTCCTGCTTTTCAGCTTTCTACGGAGTCACCTAGTGCAG | 16000 fluorescence intensity (a.u.)
9 | ACGACGAGGTCGCTTTTTTCTTGTTGGGCTGGGCTGGGATCGGAGTCACCTAGTGCAG | 21800 fluorescence intensity (a.u.)
10 | AAGCCACAACGCTCACAGCGCGCGCGCCTCCAGTCTTCTCCGGAGTCACCTAGTGCAG | 8190 fluorescence intensity (a.u.)
11 | CGTGGTTGACTATTTATTATTGAAGCCTTGCAACATGGACCGGAGTCACCTAGTGCAG | 13200 fluorescence intensity (a.u.)
12 | CTCATACTATTTTGGTTTGTCGATATGTTCAGCAAGACGTCGGAGTCACCTAGTGCAG | 9070 fluorescence intensity (a.u.)
13 | CCACTCCACATCACGATCGCGGGCGCCGGTATGCTTCTTCCGGAGTCACCTAGTGCAG | 9680 fluorescence intensity (a.u.)
14 | GCACTAGCAGCCACGCTCGCCCGCCGCCGCCCGTCCTGCCCGGAGTCACCTAGTGCAG | 8350 fluorescence intensity (a.u.)
15 | CCGTCGACCGCCTCGTCCTCTGCCTCGGCTGCTTCTGGATCGGAGTCACCTAGTGCAG | 13800 fluorescence intensity (a.u.)
16 | GTATATACCCTAACTTGTCATCCCACTCAGCTGTCCGTCCCGGAGTCACCTAGTGCAG | 8100 fluorescence intensity (a.u.)
17 | CTTCTTAGTACTGCATATATTTTCTTGATTGCTTCAGTGACGGAGTCACCTAGTGCAG | 8300 fluorescence intensity (a.u.)
18 | AAACTTATTTGGCCATGGTGTCATCGGGGTTGGCGTTTAGCGGAGTCACCTAGTGCAG | 10000 fluorescence intensity (a.u.)
19 | GGGTGTCATATCGGATGTTTGACCGGATGTCGGATGGGTTCGGAGTCACCTAGTGCAG | 10400 fluorescence intensity (a.u.)
20 | TGTAGGAGTAGTCTCTCACAGCTCTCGCTTTCTCCTCTCACGGAGTCACCTAGTGCAG | 8030 fluorescence intensity (a.u.)
21 | TACCTGGACTAATGGTGCATTTATCGCCCGCGACTAAACACGGAGTCACCTAGTGCAG | 8240 fluorescence intensity (a.u.)

Some values from the entries so far.
binding signal, TTGTTGTGTATGTTTCCAATCGGTTCGTTTGCAACGCATACGGAGTCACCTAGTGCAG is entered as 8440 fluorescence intensity (a.u.)
binding signal, GTATATACCCTAACTTGTCATCCCACTCAGCTGTCCGTCCCGGAGTCACCTAGTGCAG is entered as 8100 fluorescence intensity (a.u.)

Two records picked at random from the list so far:
Row | Sequence | binding signal
8 | TGGTCTTGTGGTGCCTTTTTTCCTGCTTTTCAGCTTTCTACGGAGTCACCTAGTGCAG | 16000 fluorescence intensity (a.u.)
14 | GCACTAGCAGCCACGCTCGCCCGCCGCCGCCCGTCCTGCCCGGAGTCACCTAGTGCAG | 8350 fluorescence intensity (a.u.)

More records

Row | Sequence | binding signal
22 | CCCAGCCGCGTCGCTCACTGTTTTCCTCCACCGCCGCAGTCGGAGTCACCTAGTGCAG | 11000 fluorescence intensity (a.u.)
23 | TCATTTGTCATCCATAAGTTTATATTTTGTACTTTTAGTTCGGAGTCACCTAGTGCAG | 8550 fluorescence intensity (a.u.)
24 | TTTTTATTTTTTTCCACATTTTATCCTATTTGTACCATATCGGAGTCACCTAGTGCAG | 8900 fluorescence intensity (a.u.)
25 | GATTCTCCCTTTCTCCCTTATCATTTTTGCCATGATTTTTCGGAGTCACCTAGTGCAG | 8760 fluorescence intensity (a.u.)
26 | AGCTCCTATATTTTGTATACGACAGCAAGCAGCGACCGATCGGAGTCACCTAGTGCAG | 8240 fluorescence intensity (a.u.)
27 | GCATTTCCGTCCCCGTTCCCGTTCCCGTTCCCGTTTGGGTCGGAGTCACCTAGTGCAG | 8290 fluorescence intensity (a.u.)
28 | TTGGATGGATGGGATCACCTTGCATTTTCGCTCTACTTCACGGAGTCACCTAGTGCAG | 8580 fluorescence intensity (a.u.)
29 | CACCGTCTCCGCCTCCGCCCTCGGCGTCGACCCCACCACCCGGAGTCACCTAGTGCAG | 8670 fluorescence intensity (a.u.)
30 | AGTTATTTCTAGATTGTATTCCTATATGGACTCTTCTTTTCGGAGTCACCTAGTGCAG | 8560 fluorescence intensity (a.u.)
31 | GGCTTGATTTATTGATTTGTTCTTTAGTACTCCAGTTCAACGGAGTCACCTAGTGCAG | 8620 fluorescence intensity (a.u.)
32 | TGGTTTTATAGGCGTGGGGTGTGGAGCTTCGAGGGGAAGGCGGAGTCACCTAGTGCAG | 13900 fluorescence intensity (a.u.)
33 | TTTCCCAGTTTCTCTATATTCTCATTAGCTGTTTCTTTCTCGGAGTCACCTAGTGCAG | 9450 fluorescence intensity (a.u.)
34 | GCGTAACTTACTTTGTATTGTCCTCATGCAGAAGGCCTTCCGGAGTCACCTAGTGCAG | 9600 fluorescence intensity (a.u.)
35 | CCGTTGCAGAAAGCCTTTGCTCTCTTCTTGCTTTCCTCAACGGAGTCACCTAGTGCAG | 10300 fluorescence intensity (a.u.)
36 | ATGTCAATTTTCTCGCGTCCGTCCTATCTCTCGTGTTTTACGGAGTCACCTAGTGCAG | 12000 fluorescence intensity (a.u.)
37 | ATGAAACTTGTAGGACCACTTTGCCTATTCACCCAAATTACGGAGTCACCTAGTGCAG | 9080 fluorescence intensity (a.u.)
38 | ATCATATAGTCCCATACCGCCCGCCTAGTCTCATTGGAAACGGAGTCACCTAGTGCAG | 13400 fluorescence intensity (a.u.)
39 | GGTTTGGTGAACTGTGTATAATGGAGATGGGGTGGGTTGGCGGAGTCACCTAGTGCAG | 13400 fluorescence intensity (a.u.)
40 | CTTCTCTTTATCTCAGCGATGGGCGGGCAGCGTGCGAGCACGGAGTCACCTAGTGCAG | 12800 fluorescence intensity (a.u.)
41 | TCGCCATGATTGATCTGATTGCCTACTTAAATTACATTTCCGGAGTCACCTAGTGCAG | 8590 fluorescence intensity (a.u.)
42 | CTTGTCGTTTCCATGTAGAACTCTGGTTGTCTTTCCTTATCGGAGTCACCTAGTGCAG | 10600 fluorescence intensity (a.u.)
